Test results reported in patent US20180362485A1, “N-HYDROXYFORMAMIDE COMPOUNDS AND COMPOSITIONS COMPRISING THEM FOR USE AS BMP l, TLL1 AND/OR TLL2 INHIBITORS” (GlaxoSmithKline Intellectual Property (No. 2) Limited, priority 2015, published 2018).
Some results were stated once for a whole list of compounds, not compound by compound.

Tests used:
Solution stability assay = assay type: physicochemical; conditions: 1 mg/mL in 100 mM Britton Robinson buffer pH 7.96, 40° C.
[1] = Human plasma stability assay; conditions: 37° C., within 24 hours

Row | SMILES | purity present at 200 hours (test compound remaining relative to time zero) (Solution stability assay) [%] | conversion to a BMP1, TLL1 and/or TLL2 inhibitor in human plasma [1]
1 | CCCCC[C@@H](C(=O)NCNC(=O)c1ccc(-c2ccccc2)o1)[C@@H](CC)N(C=O)OC(=O)C(C)(C)C [Example 136, 5-phenyl-N—(((R)-2-((R)-1-(N-(pivaloyloxy)formamido)propyl)heptanamido)methyl)furan-2-carboxamide] | < 80 | convert to a BMP1, TLL1 and/or TLL2 inhibitor within 24 hours
2 | CCCCC[C@@H](C(=O)NCNC(=O)c1ccc(-c2ccc(C(=O)N[C@@H](CC(=O)O)C(=O)O)c(OCC)c2)o1)[C@@H](CC)N(C=O)OC(=O)Cc1ccccc1 [Example 4, (S)-2-(2-ethoxy-4-(5-((((R)-2-((R)-1-(N-(2-phenylacetoxy) formamido)propyl)heptanamido)methyl)carbamoyl)furan-2-yl)benzamido) succinic acid] | < 80 | convert to a BMP1, TLL1 and/or TLL2 inhibitor within 24 hours
3 | CCCCC[C@@H](C(=O)NCNC(=O)c1ccc(-c2ccc(C(=O)N[C@@H](CC(=O)O)C(=O)O)c(OCC(=O)O)c2)o1)[C@@H](CC)N(C=O)OC(=O)c1ccccc1C [Example 8, (S)-2-(2-(carboxy-methoxy)-4-(5-((((R)-2-((R)-1-(N-((2-methylbenzoyl)oxy)formamido)propyl)heptanamido)methyl)carbamoyl)furan-2-yl)benzamido) succinic acid] | < 80 | convert to a BMP1, TLL1 and/or TLL2 inhibitor within 24 hours
